Where “and” joins values, the source holds several entries; their conditions need not be identical. Equal entries are not always repeated. Among all 300,000 compounds or so, about 5,400 (1.8%) were called active. The shares of active, inactive and inconclusive entries below differ from those in the screen. Calls come from the whole dose curve; tested in HEK293 cells. Potencies beside an inconclusive call are fits to weak or partial responses and may not hold up.
experiment: qHTS for inhibitors of binding or entry into cells for Marburg Virus; settings: Marburg virus pseudotyped entry inhibition, cell reporter; activity change, negative = inhibition: at 37.8 µM (top of the series) unless noted
% is set by controls: 0 for no effect and ±100 for the full control effect; potency is the fitted concentration of half-maximal effect.

Compound | Potency | activity change, negative = inhibition
CCc1ccc(NC(=O)C2CCN(S(=O)(=O)c3c(C)noc3/C=C\c3ccc(OC)cc3)CC2)cc1 | inconclusive: 3.16 µM [activator, single point] | –
CCNc1nc(N2CCCC2)nc(N2CCCC2)n1 | inconclusive: 7.08 µM [inhibitor, full curve, poor fit] | –
Cc1ccc(C(=O)Oc2oc(-c3ccco3)nc2C=Nc2ccc(Cl)cc2)cc1 | inconclusive: 7.08 µM [inhibitor, full curve, poor fit] | –
O=C(Nc1cccc(S(=O)(=O)N2CCCCCC2)c1)c1ccc2ccccc2n1 | – | inactive: 0.577%
CCCOc1ccccc1-c1nc2n[nH]nc2c(=O)[nH]1 | inactive and inconclusive: 2.51 µM [inhibitor, full curve] | –
CCC(=O)N/C(=N/c1nc(C)cc(C)n1)Nc1ccc(OC)cc1 | – | inactive: -6.7%
O=C(CS(=O)(=O)c1cn(CC(=O)N2CCOCC2)c2ccccc12)NCc1ccc(F)cc1 | – | inactive: -0.35%
COc1cccc(C(=O)NCC(c2ccc3c(c2)OCO3)N2CCN(c3ccc(F)cc3)CC2)c1 (stereo unspecified) | inconclusive: 35.5 µM [inhibitor, single point] | –
Cc1c(C(=O)NCc2cccs2)oc2ccc(S(=O)(=O)N3CCOCC3)cc12 | inconclusive: 0.184 µM [inhibitor, single point] | –
Fc1ccccc1C1c2cccn2CCN1C(=S)Nc1ccc(Br)cc1 (stereo unspecified) | inconclusive: 12.6 µM [inhibitor, partial curve, poor fit] | –
O=C(O)COc1cccc(/C=C2/SC(=S)N(Cc3ccccc3)C2=O)c1 | – | inactive: -17.5%
CCOC(=O)c1cnc(Nc2ccc(OCC)cc2)nc1C | inconclusive: 20.6 µM [activator, single point] | –
Cn1nccc1C(=O)N(CCN1CCCCC1)CC1CCCN(C2CCCC2)C1 (stereo unspecified) | inconclusive: 11.2 µM [inhibitor, single point] | –
Cc1ccc2[nH]c(-c3ccccc3)c(CN3CCCC3)c(=O)c2c1 | – | inactive: -25.8% [at 46.1 µM]
CCn1cc(/C=N/NC(=O)COc2cccc3cccnc23)c2ccccc21 | inconclusive: 25.9 µM [inhibitor, partial curve, poor fit] | –
COc1ccc(OC)c(/C=N/NC(=O)CNC(=O)c2ccc(S(=O)(=O)N3CCCC3)cc2)c1 | – | inactive: 9.71% [at 46.1 µM]
COc1cc(O)c(C(=O)/C=C\c2ccc3c(c2)OCO3)c(OC)c1 | inconclusive: 0.0944 µM [activator, full curve, poor fit] | –
CCN(C1CCS(=O)(=O)C1)S(=O)(=O)c1cc(C)ccc1C (stereo unspecified) | – | inactive: -25.8% [at 46.1 µM]
CNc1nc(Nc2ccc(C(C)=O)cc2)nc(OC(C(F)(F)F)C(F)(F)F)n1 | inconclusive: 22.4 µM [inhibitor, single point] | –
Cc1c(C(=O)OCC(=O)N2c3ccccc3CC2C)oc2ccccc12 (stereo unspecified) | inconclusive: 32.6 µM [inhibitor, single point] | –
COc1ccc(-c2ccc(S(=O)(=O)N3CCOCC3)cc2)cc1 | – | inactive: 20.3%
O=C1c2cccc3c([N+](=O)[O-])ccc(c23)C(=O)N1c1nccs1 | inconclusive: 5.8 µM [inhibitor, full curve] | –
CC(=O)Nc1cccc(OCC(=O)NS(=O)(=O)c2ccc(Cl)cc2)c1 | – | inactive: -27.9%
O=C(Nc1cccc(C(=O)N2CCCC2)c1)C1CC1 | inconclusive: 0.007 µM [activator, full curve, poor fit] | –

Individual results from the list:
activity change, negative = inhibition with COc1ccc(OC)c(/C=N/NC(=O)CNC(=O)c2ccc(S(=O)(=O)N3CCCC3)cc2)c1 reads inactive: 9.71% [at 46.1 µM]
Potency with CNc1nc(Nc2ccc(C(C)=O)cc2)nc(OC(C(F)(F)F)C(F)(F)F)n1 reads inconclusive: 22.4 µM [inhibitor, single point]
Potency with CCOC(=O)c1cnc(Nc2ccc(OCC)cc2)nc1C reads inconclusive: 20.6 µM [activator, single point]

Following part:

Compound | Potency | activity change, negative = inhibition
O=c1c2ccccc2nc(SCc2nnc(-c3ccccc3Br)o2)n1Cc1ccco1 | – | inactive: -3.37%
COc1ccc(NC(=O)c2cc(Br)ccc2Cl)c([N+](=O)[O-])c1 | – | inactive: -9.74% [at 46.1 µM]
Cc1nnc(SCCN2CCOCC2)n1C | inconclusive: 2.91 µM [inhibitor, partial curve, poor fit] | –
CS(=O)(=O)N(CC(=O)N1CCN(c2ccccc2F)CC1)c1ccc2c(c1)OCCO2 | inconclusive: 0.13 µM [inhibitor, full curve, poor fit] | –
NC(=O)CSc1n[nH]c(-c2ccco2)n1 | inconclusive: 1.41 µM [inhibitor, partial curve, poor fit] | –
CCOC(=O)C1CCCN(c2c(C(=O)c3ccccc3)cnc3ccccc23)C1 (stereo unspecified) | inconclusive: 35.5 µM [inhibitor, single point] | –
COc1ccc(-c2nn(-c3ccccc3)cc2/C=N/NC(N)=S)cc1OC | inconclusive: 4.11 µM [inhibitor, partial curve, poor fit] | –
Cc1ccccc1C(=O)NC(C(=O)Nc1nc2c(s1)CCCC2)C(C)C (stereo unspecified) | inconclusive: 32.6 µM [activator, single point] | –
CCCn1nc(C(=O)OCC(=O)Nc2ncc(Cl)c(C)c2Cl)c2ccccc2c1=O | inconclusive: 14.1 µM [activator, single point] | –
Cc1ccc2c(c1)c1ncnc(N3CCc4ccccc4C3)c1n2C | inconclusive: 3.55 µM [activator, single point] | –
CCOc1ccccc1-n1c(SCC(=O)N2CCCC2)nnc1-c1ccoc1C | inconclusive: 3.55 µM [inhibitor, partial curve, poor fit] | –
Cc1ccc(NC(=O)c2nc(S(=O)(=O)Cc3ccccc3)ncc2Cl)cc1 | inconclusive: 35.5 µM [inhibitor, single point] | –
FC(F)(F)c1ccc2c(c1)C1C=CCC1C(c1ccncc1)N2 (stereo unspecified) | inconclusive: 2.82 µM [inhibitor, full curve, poor fit] | –
O=C(Cc1ccc(Cl)cc1Cl)OCC(=O)N1CCN(C(=O)c2ccco2)CC1 | inconclusive: 5.62 µM [activator, single point] | –
Cc1ccc(/C=N/NC(=O)c2ccncc2)cc1 | – | inactive: 10.8% [at 46.1 µM]
COc1ccccc1N1CCN(C(=O)c2ccc([N+](=O)[O-])s2)CC1 | – | inactive: -3.22%
COC(=O)C(Cc1ccc(O)cc1)NC(=O)c1ccc2c(c1)OCCO2 (stereo unspecified) | – | inactive: 11% [at 46.1 µM]
O=C(CCN1C(=O)/C(=C/c2ccccc2F)SC1=S)NCCCN1CCOCC1 | inconclusive: 6.31 µM [inhibitor, single point] | –
Cc1ccccc1NC(=S)NCc1ccc(Cl)cc1 | inconclusive: 2.82 µM [activator, single point] | –
CS/C(=N\S(=O)(=O)c1ccc(Cl)cc1)c1ccccc1 | – | inactive: -11.8%
COCCn1c(C)cc(C2=NNC(=Nc3ccccc3F)SC2)c1C | inconclusive: 1 µM [inhibitor, full curve, poor fit] | –
CC(=O)N1N=C(c2ccc(C(C)(C)C)cc2)OC1(C)C | inconclusive: 5.62 µM [inhibitor, single point] | –
Cc1cc(/C=C2/NC(=O)N(Cc3ccccc3F)C2=O)c(C)n1C(C)C | inconclusive: 0.631 µM [inhibitor, full curve, poor fit] | –
COc1ccc(OCCN2CCN(C(=O)c3ccc(OC(F)F)c(OC)c3)CC2)cc1 | inconclusive: 10 µM [inhibitor, partial curve, poor fit] | –

Compound | Potency | activity change, negative = inhibition
COc1ccc(O)c(CNn2c(-c3ccc(Br)cc3)nc3ccccc3c2=O)c1 | – | inactive: -9.3% [at 46.1 µM]
Cc1c(NC(=O)C(=O)N/N=C/c2cccs2)c(=O)n(-c2ccccc2)n1C | inconclusive: 15.8 µM [activator, single point] | –
COc1ccc(N(CC(=O)NCCSCc2ccco2)S(=O)(=O)c2ccccc2)cc1Cl | inconclusive: 31.6 µM [inhibitor, single point] | –
CCNc1nc(NC(C)(C)C)nc(N2CCCCC2)n1 | active: 2 µM | –
Cc1ccc(C(=O)c2cncc(Br)c2)cc1 | – | inactive: 6.85%
Cc1c(CNCCCc2ccccc2)c(C(=O)O)c(C)n1Cc1cccc(Cl)c1 | inconclusive: 10 µM [inhibitor, partial curve, poor fit] | –
CN1CCN(c2ccc(S(=O)(=O)C(F)(F)F)cc2[N+](=O)[O-])CC1 | – | inactive: -7.84%
Cc1ccc(S(=O)(=O)N2CCCOC2CNC(=O)C(=O)NCc2ccccc2C)cc1 (stereo unspecified) | inconclusive: 20 µM [inhibitor, single point] | –
Cc1ccc2c(CC(=O)OCC(=O)N(CC(C)C)c3c(N)n(Cc4ccccc4)c(=O)[nH]c3=O)coc2c1 | – | inactive: -23.1% [at 46.1 µM]
COC(=O)c1sc(NC(=O)C(C)C)c(C(=O)OC)c1C | inconclusive: 12.6 µM [activator, single point] | –
CC1CCc2c(sc(NC(=O)c3cc(-c4ccc(Br)cc4)on3)c2C(N)=O)C1 (stereo unspecified) | inconclusive: 3.16 µM [activator, single point] | –
CNC(=O)C1CC(=O)N(c2ccc(OCC(=O)Nc3ccc(F)cc3)cc2)C1 (stereo unspecified) | – | inactive: 14% [at 46.1 µM]
O=C(Nc1ccc(Cl)c([N+](=O)[O-])c1)c1cnccn1 | – | inactive: -23.6%
CCOc1c(OC(C)=O)ccc(/C=C/c2ccc3cccc(OC(C)=O)c3n2)c1[N+](=O)[O-] | – | inactive: 9.95%
CNCCOCC(O)CSc1ccccc1 (stereo unspecified) | – | inactive: -3.97%
Cn1c(SCC(=O)NCc2cccs2)nnc1-c1ccc(O)cc1 | – | inactive: -1.29% [at 46.1 µM]
O=C(Nc1ccc2c(c1)Cc1ccccc1-2)c1ccccc1F | inconclusive: 35.5 µM [inhibitor, single point] | –
Cc1ccc(C)c(OCC(=O)N2CCCN(C)CC2)c1 | – | inactive: 19.8%
Cc1ccc(NC(=O)C(c2ccc(Cl)cc2Cl)N2CCCC2)cc1 (stereo unspecified) | – | inactive: -5.86%
COc1cc(/C=C/C(=O)NCC(=O)N2CCC(N(C)CCN3CCOCC3)CC2)ccc1OC(C)C | inconclusive: 5.62 µM [inhibitor, single point] | –
CCCC12CN3CC(C)(CN(C1)C3c1ccc([N+](=O)[O-])o1)C2=O (stereo unspecified) | – | inactive: 24%
COc1ccc(-c2cc(C(=O)NC3CCCCC3)no2)cc1OC | – | inactive: 6.9% [at 46.1 µM]
CCc1nnc(NC(=O)CSc2nnc(-c3ccccc3O)n2-c2ccc(C)cc2)s1 | inconclusive: 4.61 µM [inhibitor, full curve, poor fit] | –

Source: PubChem BioAssay AID540276 (National Center for Advancing Translational Sciences (NCATS), 2011)
